From article PMC3875492
No constants are given. Whether binding was seen depends on the method and setting. In cells and extracts the contact can be indirect. Some entries that bind do so weakly or less than the wild type.

The chains behind the UniProt entries cited, without tags or fusion partners. Residues count along the entry.
UniProt P40763: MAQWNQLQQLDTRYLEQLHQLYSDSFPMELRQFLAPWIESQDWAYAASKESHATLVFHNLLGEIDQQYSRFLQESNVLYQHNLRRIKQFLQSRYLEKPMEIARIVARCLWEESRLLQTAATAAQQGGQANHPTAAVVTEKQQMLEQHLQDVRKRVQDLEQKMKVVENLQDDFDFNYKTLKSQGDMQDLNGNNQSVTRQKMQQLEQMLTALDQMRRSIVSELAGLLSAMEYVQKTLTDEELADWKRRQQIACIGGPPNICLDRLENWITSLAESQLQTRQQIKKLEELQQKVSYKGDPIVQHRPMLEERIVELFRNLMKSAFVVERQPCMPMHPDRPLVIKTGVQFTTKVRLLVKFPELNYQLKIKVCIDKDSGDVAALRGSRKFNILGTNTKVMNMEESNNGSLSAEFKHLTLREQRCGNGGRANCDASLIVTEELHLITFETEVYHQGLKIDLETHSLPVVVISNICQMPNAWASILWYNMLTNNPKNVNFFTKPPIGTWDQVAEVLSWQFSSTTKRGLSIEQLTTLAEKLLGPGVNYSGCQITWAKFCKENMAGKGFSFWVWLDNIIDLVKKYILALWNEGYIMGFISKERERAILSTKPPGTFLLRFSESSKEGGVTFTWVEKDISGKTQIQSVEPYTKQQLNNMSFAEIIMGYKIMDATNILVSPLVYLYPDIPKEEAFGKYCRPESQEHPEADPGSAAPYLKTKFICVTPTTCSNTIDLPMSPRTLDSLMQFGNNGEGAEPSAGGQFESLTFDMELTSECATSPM
UniProt P16070, residues 21-742: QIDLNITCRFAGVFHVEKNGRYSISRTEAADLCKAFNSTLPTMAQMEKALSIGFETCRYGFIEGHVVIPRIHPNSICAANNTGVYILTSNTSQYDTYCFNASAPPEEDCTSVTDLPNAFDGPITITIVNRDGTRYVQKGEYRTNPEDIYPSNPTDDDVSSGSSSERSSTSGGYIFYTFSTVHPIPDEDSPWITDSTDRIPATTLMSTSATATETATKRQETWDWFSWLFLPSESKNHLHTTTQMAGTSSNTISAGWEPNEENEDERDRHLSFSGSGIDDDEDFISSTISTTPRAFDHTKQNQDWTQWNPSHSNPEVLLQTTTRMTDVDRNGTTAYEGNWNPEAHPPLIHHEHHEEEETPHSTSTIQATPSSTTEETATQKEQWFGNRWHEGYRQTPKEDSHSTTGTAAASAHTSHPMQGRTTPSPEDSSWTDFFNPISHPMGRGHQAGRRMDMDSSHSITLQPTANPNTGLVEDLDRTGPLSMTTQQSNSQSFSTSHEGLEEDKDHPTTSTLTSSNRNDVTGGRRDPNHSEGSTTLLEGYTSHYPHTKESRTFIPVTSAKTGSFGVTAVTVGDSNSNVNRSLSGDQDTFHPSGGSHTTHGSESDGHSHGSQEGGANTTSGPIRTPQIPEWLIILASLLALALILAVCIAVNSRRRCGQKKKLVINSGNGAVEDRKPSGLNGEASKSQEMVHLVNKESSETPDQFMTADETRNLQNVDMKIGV

What was measured:
[1] = target: Signal transducer and activator of transcription 3 (STAT3) (human (endogenous in MDA-MB-231 and MCF7-HER2)) (UniProt P40763); assay: co-IP; STAT3 monoclonal antibody and protein A agarose; nuclear extracts of MDA-MB-231 and MCF7-HER2 cells; western blot of the immuno-pellets
[2] = target: Signal transducer and activator of transcription 3 (STAT3) (human (endogenous in MDA-MB-231 and MCF7-HER2)) (UniProt P40763); assay: co-IP; STAT3 monoclonal antibody and protein A agarose; cytoplasmic extracts of MDA-MB-231 and MCF7-HER2 cells; western blot of the immuno-pellets

binding [2]: binds
Substance: CD44 (from UniProt P16070 21-742) (receptor)
binding [1]: no binding (condition: in nuclear extracts)
